The test has as its target T1, HSV-MOB4 (Drosophila) (UniProt Q7K0E3).
T1 sequence: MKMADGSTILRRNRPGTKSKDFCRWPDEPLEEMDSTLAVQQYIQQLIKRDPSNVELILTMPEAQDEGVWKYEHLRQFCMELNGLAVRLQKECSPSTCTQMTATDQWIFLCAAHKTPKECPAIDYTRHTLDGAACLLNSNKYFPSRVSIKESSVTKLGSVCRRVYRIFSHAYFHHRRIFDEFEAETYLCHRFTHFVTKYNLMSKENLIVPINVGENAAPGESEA
The experiment in a line: co-IP; S2 cells transfected with plasmids for two tagged STRIPAK proteins (binary co-expression); lysates immunoprecipitated with anti-HA or anti-HSV; immunoblot of immunoprecipitates and lysates. Background: A western blot detects proteins with antibodies after separation by electrophoresis.

No constants are given. Whether binding was seen depends on the method and setting. Binding seen in cells or lysates may run through a third protein. Some entries that bind do so weakly or less than the wild type. Tags and fused reporters may be left off the sequences shown.

B1: GFP-FGOP2 (protein, UniProt Q9VM65 1-315)
chain: MSNLSVGQIIMDAQRMASRVKDLDALGTALLEEAENNNRLVESLRQYQDDIESLNRISNNKTNADMVNRIQQQNINSSEILKENRELKIFIEDYERAMELMMQKYREHTVSKVLDSKFSFKELYNERMWQVIREQREKINEMAAVMQLAASVDDGVVQRELQTISQLRLENETLRELLQISKQYGSSQRPIRESDHLLEEKAVQTDSTADDSADDLSISGASVENMNNNSVIQMYSSPEQPAKVAGTTNSFNTAPVHSQSETQAPSVTLETAPPGEEPLANDNNNGPAVNTTSAPPPATTSNESVEDQATVAPAT
Turning to B1, the binding result was “binds”.

For the origin of these results see article PMC3958334.
